Measurements taken from the supplement of paper PMC6078165.
± gives the standard deviation of the averaged measurements. The reference is the same well before dosing, and untreated signal decays as well.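 The cancer cells are triple-negative breast cancer lines of basal-like or mesenchymal-like type, grown without fibroblasts. A drop in red signal reflects loss of mitochondrial integrity, a stand-in for apoptotic death.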

Assays:
[1] = system: MDAMB436; assay: relative JC-1 red fluorescence (viability) vs pre-drug, monoculture (fraction); higher = more viable cancer cells; settings: coculture fibroblast: none (monoculture)
Procedure: (§1)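 JC-1 labelled TNBC cells grown in monoculture (density kept equal with unlabelled cancer cells) in 384-well plates in FluoroBrite medium, treated with one of 42 anticancer drugs at 0.1, 1, 10 or 100 uM. JC-1 red fluorescence (mitochondrial integrity, surrogate of apoptotic death) was read by plate reader every 8 h for 72 h. Values are normalised to each well's pre-drug value, with background from alamethicin. The stock of one drug was tenfold lower, so its dose labels may be too high. Monoculture values are repeated alongside each fibroblast plate and are averaged here.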

[2] = system: HCC1143; assay: as above; settings: coculture fibroblast: none (monoculture)
Procedure: as §1

CCc1c2c(nc3ccc(OC(=O)N4CCC(N5CCCCC5)CC4)cc13)-c1cc3c(c(=O)n1C2)COC(=O)[C@]3(O)CC [Irinotecan]
relative JC-1 red fluorescence
Settings	8 h	16 h	24 h	32 h	40 h	48 h	56 h	64 h	72 h
[1], 0.1 µM	0.8412 ± 0.0024	0.7243 ± 0.005	0.7341 ± 0.0026	0.6715 ± 0.0067	0.659 ± 0.0084	0.642 ± 0.018	0.625 ± 0.0095	0.631 ± 0.017	0.631 ± 0.015
[1], 1 µM	0.8067 ± 0.0046	0.7554 ± 0.0054	0.752 ± 0.038	0.712 ± 0.049	0.695 ± 0.054	0.687 ± 0.061	0.685 ± 0.072	0.684 ± 0.076	0.688 ± 0.079
[1], 10 µM	0.884 ± 0.012	0.781 ± 0.015	0.822 ± 0.038	0.778 ± 0.053	0.766 ± 0.062	0.76 ± 0.077	0.762 ± 0.088	0.752 ± 0.098	0.761 ± 0.1
[1], 100 µM	0.838 ± 0.01	0.891 ± 0.011	0.9446 ± 0.0019	0.931 ± 0.013	0.962 ± 0.018	0.984 ± 0.01	0.781 ± 0.061	0.835 ± 0.098	0.816 ± 0.072
[2], 0.1 µM	0.916 ± 0.013	0.831 ± 0.012	0.778 ± 0.022	0.74 ± 0.027	0.694 ± 0.031	0.666 ± 0.029	0.643 ± 0.025	0.631 ± 0.029	0.631 ± 0.028
[2], 1 µM	0.8682 ± 0.004	0.759 ± 0.0078	0.674 ± 0.014	0.617 ± 0.015	0.564 ± 0.022	0.528 ± 0.027	0.5 ± 0.034	0.48 ± 0.036	0.465 ± 0.037
[2], 10 µM	0.9149 ± 0.0082	0.8381 ± 0.0013	0.793 ± 0.012	0.752 ± 0.012	0.7103 ± 0.0062	0.69 ± 0.0092	0.6626 ± 0.0058	0.6529 ± 0.0046	0.642 ± 0.011
[2], 100 µM	0.937 ± 0.013	0.904 ± 0.038	0.805 ± 0.015	0.712 ± 0.0092	0.666 ± 0.0092	0.655 ± 0.004	0.647 ± 0.0078	0.6482 ± 0.0011	0.641 ± 0.017

O=C(O)C1(C(=O)O)CCC1.[NH2-].[NH2-].[Pt+2] [Carboplatin]
relative JC-1 red fluorescence
Settings	8 h	16 h	24 h	32 h	40 h	48 h	56 h	64 h	72 h
[1], 0.1 µM	0.8308 ± 0.0015	0.72 ± 0.015	0.6943 ± 0.0028	0.6348 ± 0.0019	0.611 ± 0.0092	0.594 ± 0.011	0.571 ± 0.0084	0.557 ± 0.013	0.558 ± 0.01
[1], 1 µM	0.793 ± 0.0083	0.743 ± 0.014	0.734 ± 0.021	0.678 ± 0.029	0.673 ± 0.032	0.662 ± 0.037	0.657 ± 0.042	0.651 ± 0.043	0.666 ± 0.055
[1], 10 µM	0.8537 ± 0.0023	0.7555 ± 0.002	0.732 ± 0.011	0.666 ± 0.0079	0.651 ± 0.0075	0.637 ± 0.01	0.627 ± 0.024	0.615 ± 0.016	0.618 ± 0.023
[1], 100 µM	0.75905 ± 0.00012	0.812 ± 0.015	0.856 ± 0.033	0.853 ± 0.053	0.866 ± 0.047	0.895 ± 0.054	0.923 ± 0.07	0.904 ± 0.018	0.845 ± 0.062
[2], 0.1 µM	0.8902 ± 0.0056	0.82 ± 0.015	0.758 ± 0.021	0.712 ± 0.023	0.665 ± 0.022	0.633 ± 0.016	0.608 ± 0.011	0.594 ± 0.013	0.58 ± 0.013
[2], 1 µM	0.853 ± 0.0094	0.7767 ± 0.0031	0.723 ± 0.0098	0.686 ± 0.02	0.64 ± 0.026	0.617 ± 0.032	0.598 ± 0.031	0.583 ± 0.038	0.568 ± 0.038
[2], 10 µM	0.8786 ± 0.0019	0.7965 ± 0.0076	0.73211 ± 0.00015	0.6719 ± 0.0037	0.621 ± 0.0055	0.583 ± 0.011	0.5554 ± 0.0055	0.534 ± 0.0088	0.522 ± 0.0061
[2], 100 µM	0.845 ± 0.018	0.7936 ± 0.0034	0.75 ± 0.011	0.709 ± 0.022	0.674 ± 0.027	0.662 ± 0.035	0.646 ± 0.04	0.639 ± 0.045	0.63 ± 0.052

COc1cc([C@@H]2c3cc4c(cc3[C@@H](O[C@@H]3O[C@@H]5CO[C@@H](c6cccs6)O[C@H]5[C@H](O)[C@H]3O)[C@H]3COC(=O)[C@H]23)OCO4)cc(OC)c1O [Teniposide]
relative JC-1 red fluorescence
Settings	8 h	16 h	24 h	32 h	40 h	48 h	56 h	64 h	72 h
[1], 0.1 µM	0.805 ± 0.019	0.775 ± 0.0027	0.797 ± 0.00092	0.771 ± 0.01	0.773 ± 0.011	0.786 ± 0.022	0.787 ± 0.025	0.798 ± 0.036	0.817 ± 0.035
[1], 1 µM	0.773 ± 0.022	0.786 ± 0.014	0.8 ± 0.03	0.768 ± 0.052	0.765 ± 0.052	0.773 ± 0.065	0.784 ± 0.081	0.789 ± 0.093	0.803 ± 0.1
[1], 10 µM	0.8323 ± 0.0076	0.834 ± 0.011	0.845 ± 0.033	0.793 ± 0.033	0.804 ± 0.025	0.808 ± 0.029	0.8 ± 0.031	0.806 ± 0.029	0.822 ± 0.032
[1], 100 µM	0.835 ± 0.0096	0.8998 ± 0.0023	0.964 ± 0.012	0.976 ± 0.014	0.877 ± 0.055	0.852 ± 0.066	0.8036 ± 0.0011	0.794 ± 0.07	0.849 ± 0.078
[2], 0.1 µM	0.85 ± 0.021	0.7894 ± 0.0018	0.7484 ± 0.0057	0.694 ± 0.0077	0.658 ± 0.01	0.631 ± 0.012	0.621 ± 0.011	0.616 ± 0.018	0.606 ± 0.021
[2], 1 µM	0.847 ± 0.012	0.772 ± 0.016	0.739 ± 0.022	0.713 ± 0.026	0.677 ± 0.019	0.669 ± 0.018	0.661 ± 0.019	0.676 ± 0.02	0.676 ± 0.013
[2], 10 µM	0.9036 ± 0.0035	0.8362 ± 0.0053	0.779 ± 0.011	0.717 ± 0.021	0.645 ± 0.021	0.621 ± 0.015	0.594 ± 0.013	0.582 ± 0.022	0.577 ± 0.016
[2], 100 µM	0.848 ± 0.018	0.777 ± 0.024	0.725 ± 0.038	0.721 ± 0.04	0.707 ± 0.035	0.722 ± 0.038	0.712 ± 0.028	0.698 ± 0.041	0.696 ± 0.048
